Assay results taken from the supplement of paper PMC7877785.
± gives the uncertainty stated by the source. The uncertainty is large for many entries.

Assay: self-splicing fitness, log relative to wild type (ln ratio); higher = more splicing; Tetrahymena group I intron in knt gene, E. coli kanamycin selection, DiMSum; sequences stand for … in CUCUCU…GGAGGGAAAAGUUAUCAGGCAUGCACCUGGUAGCUAGUCUUUAAACCAAUAGAUUGCAUCGGUUUAAAAGGCAAGACCGUCAAAUUGCGGGAAAGGGGUCAACAGCCGUUCAGUACCAAGUCUCAGGGGAAACUUUGAGAUGGCCUUGCAAAGGGUAUGGUAAUAAGCUGACGGACAUGGUCCUAACCACGCAGCCAAGUCCUAAGUCAACAGAUCUUCUGUUGAUAUGGAUGCAGUUCACAGACUAAAUGUCGGUCGGGGAAGAUGUAUUCUUCUCAUAAGAUAUAGUCGGACCUCUCCUUAAUGGGAGCUAGCGGAUGAAGUGAUGCAACACUGGAGCCGCUGGGAACUAAUUUGUAUGCGAAAGUAUAUUGAUUAGUUUUGGAGUACUCGUGGUCG
In short: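 A randomised library covering all eight P1ex-region intron nucleotides was built with the intron in the knt kanamycin-resistance gene on pET-22b(+) and held in E. coli BL21(DE3). Cells were grown overnight at 37°C or 30°C on LB agar, with or without 25 μg/mL kanamycin, plus 100 μg/mL carbenicillin, 50 μM IPTG and 0.2% rhamnose, and pooled colonies were amplicon-sequenced on an Illumina HiSeq 2500. DiMSum fitness is the error-weighted combination of wild-type-normalised replicate fold changes, kanamycin versus none.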

Sequence | self-splicing fitness (ln) (37 °C) | self-splicing fitness (ln) (30 °C)
GUGGAGCAAUAUUACGGCUU | -1.79 ± 0.53 | 
UCUCAGCAAUAUUACGCAAC | -2.54 ± 0.62 | 
CCCAAGCAAUAUUACGAUCC |  | -4.89 ± 0.58
GCUGAGCAAUAUUACGGCUC |  | -4.1 ± 0.61
CACCAGCAAUAUUACGUAUU | -2.7 ± 0.16 | -3.78 ± 0.15
GGUAAGCAAUAUUACGGUAA | -0.53 ± 0.14 | -1.6 ± 0.17
CCCGAGCAAUAUUACGACAG |  | -4.38 ± 0.72
AAGGAGCAAUAUUACGAACC | 1.27 ± 0.77 | -2.65 ± 1.1
UCUUAGCAAUAUUACGCCUU |  | -4.77 ± 0.59
CUGUAGCAAUAUUACGCCGA |  | -4.16 ± 1
UCGGAGCAAUAUUACGACCG | 0.026 ± 0.51 | 
GUUAAGCAAUAUUACGGCUC | -0.6 ± 0.21 | 0.46 ± 0.2
GCCUAGCAAUAUUACGACUA |  | -2.48 ± 0.56
UAUAAGCAAUAUUACGGAGA | -2.33 ± 0.46 | -3.11 ± 0.36
UUAAAGCAAUAUUACGAGUC | -2.23 ± 0.55 | -3.69 ± 0.73
CCGAAGCAAUAUUACGCACA | -2.59 ± 0.28 | -3.87 ± 0.37
GGUGAGCAAUAUUACGGGGG | -3.15 ± 1 | 
GCCGAGCAAUAUUACGCCCA | -1.47 ± 1.2 | 
CGAAAGCAAUAUUACGGACG | -2.25 ± 0.22 | -2.73 ± 0.21
UUUGAGCAAUAUUACGCACU | -0.729 ± 0.65 | 

Sequence | self-splicing fitness (ln) (37 °C) | self-splicing fitness (ln) (30 °C)
GCGUAGCAAUAUUACGAGCG | -1.62 ± 0.17 | -0.887 ± 0.15
UCCGAGCAAUAUUACGCGCU | -1.79 ± 1.2 | 
CGGCAGCAAUAUUACGCUCG |  | -3.75 ± 0.64
GGAUAGCAAUAUUACGCCGC | -0.941 ± 0.93 | -3.72 ± 0.73
ACGUAGCAAUAUUACGAAAC | -2.26 ± 0.4 | -2.02 ± 0.45
GACUAGCAAUAUUACGGCCC |  | -1.35 ± 0.74
UGCAAGCAAUAUUACGGCAC | -3.28 ± 0.33 | -3.59 ± 0.4
UGAUAGCAAUAUUACGGACC | -1.67 ± 0.66 | 
UAGUAGCAAUAUUACGGUCC |  | -3.42 ± 0.61
UUGUAGCAAUAUUACGUCCC |  | -2.32 ± 0.67
CGUGAGCAAUAUUACGGAGC | -1.33 ± 0.82 | 
GCAUAGCAAUAUUACGCACC | -0.954 ± 0.61 | 
CUCUAGCAAUAUUACGAAGA |  | -3.76 ± 0.64
CAGAAGCAAUAUUACGUGGC | -2.15 ± 0.15 | -3.7 ± 0.16
GAAGAGCAAUAUUACGCUCA |  | -2.23 ± 0.66
UCAUAGCAAUAUUACGGGAC | -3.97 ± 0.39 | -2.96 ± 0.27
GUAAAGCAAUAUUACGAGGG | -0.769 ± 0.52 | 
CGGGAGCAAUAUUACGCUCU | -2.78 ± 0.75 | 
CUUGAGCAAUAUUACGCGCC | -2.89 ± 1.1 | -4.19 ± 1
CCGGAGCAAUAUUACGCCGA | -3.41 ± 0.6 | 

Sequence | self-splicing fitness (ln) (37 °C) | self-splicing fitness (ln) (30 °C)
GCUGAGCAAUAUUACGGCCU | -1.64 ± 0.83 | 
UAACAGCAAUAUUACGCGGA | 0.0542 ± 0.076 | -2.12 ± 0.11
CGGGAGCAAUAUUACGGGCC | -2.06 ± 0.56 | 
CCGGAGCAAUAUUACGACAC | -2.8 ± 0.53 | -6.28 ± 1
UAGGAGCAAUAUUACGCCUU | -1.6 ± 0.53 | -2.44 ± 0.54
UGAAAGCAAUAUUACGUGUG | -0.52 ± 0.081 | -1.67 ± 0.077
UGGGAGCAAUAUUACGUCCG | 0.0657 ± 0.64 | -0.868 ± 1.4
CCUCAGCAAUAUUACGAGGC |  | -4.23 ± 0.59
CACGAGCAAUAUUACGAUUC | -2.49 ± 0.17 | -3.44 ± 0.15
GCGGAGCAAUAUUACGCAAA | -1.93 ± 0.68 | -2.32 ± 0.58
CUUUAGCAAUAUUACGUCCU |  | -3.32 ± 0.61
UCUGAGCAAUAUUACGGGAA |  | -3.49 ± 0.6
UGAAAGCAAUAUUACGACCC | -1.33 ± 0.63 | 
UAUUAGCAAUAUUACGUGUG | -0.549 ± 0.084 | -0.846 ± 0.067
ACAUAGCAAUAUUACGGGCC |  | -3.37 ± 0.6
ACCGAGCAAUAUUACGCCUA |  | -3.64 ± 0.54
ACAGAGCAAUAUUACGUAAA | -2.09 ± 0.13 | -3.71 ± 0.16
UCAAAGCAAUAUUACGAAAA |  | -3.05 ± 0.64
CUGGAGCAAUAUUACGCCCG | -1.26 ± 0.56 | 
GCCGAGCAAUAUUACGCCAG |  | -2.83 ± 0.51

Complete entries, quoted from the list:
CUGGAGCAAUAUUACGCCCG in the list: self-splicing fitness (ln) (37 °C) = -1.26 ± 0.56
UCAAAGCAAUAUUACGAAAA in the list: self-splicing fitness (ln) (30 °C) = -3.05 ± 0.64
